According to PubChem BioAssay AID1347076 (National Center for Advancing Translational Sciences (NCATS), 2019):
Hit rate of the full screen: of about 400,000 compounds, about 13,000 (3.2%) were called active. The inconclusive results got no clear call from the source; some entries with a clear call stand among them for comparison. The call rests on the fitted dose curve; in most records, active means well fitted cell-killing curve with a large enough effect; inconclusive means small, poorly fitted or top-dose-only effect, or effect the other way; inactive means flat fitted curve, though single readings scatter. Potencies of inconclusive entries are doubtful fits and often do not repeat.

test: qHTS assay for MDR1-selective chemotherapeutics: Primary screen using the drug-selected MDR subline cells KB-V1; details: KB-V1 MDR cells viability, CellTiter-Glo, 72 h; activity change, negative = cytotoxicity: at 46.1 µM (top of the series); further: nearly all actives have a fitted effect of over 60% in size
Summary of the method: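 Potencies derive from concentration-effect curves fitted to normalized luminescence (CellTiter-Glo) of KB-V1 cells treated for 72 h at 37 degrees C in phenol-red-free DMEM containing 10% FBS.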
On the % scale 0 is the no-effect control and ±100 the full control effect; potency means the concentration at half of the fitted maximal effect.

Structure (SMILES)	Potency	activity change, negative = cytotoxicity
CCOc1ccccc1NC(=O)COC(=O)c1c(CC)noc1C	inconclusive: 18.4 µM [cytotoxic, partial curve, poor fit]	–
Cc1ccc(N(CC(=O)NCc2ccc(F)cc2)C(=O)c2ccco2)cc1C	inconclusive: 11.6 µM [cytotoxic, partial curve]	–
COc1ccccc1Nc1nc(N)nc(CCl)n1	inconclusive: 14.6 µM [cytotoxic, single point]	–
COC(=O)c1ccccc1S(=O)(=O)N(Cc1cc2ccc(OC)cc2[nH]c1=O)CC1CCCO1 (centres undefined)	active: 14.6 µM	–
Cc1ccccc1CNC(=O)CSc1nnc(C)c2c(C)n(-c3ccccc3)nc12	–	inactive: -1.14%
FC(F)Sc1ccc(NC(=S)NC(c2ccccc2)c2ccccc2)cc1	inconclusive: 20.6 µM [cytotoxic, single point]	–
CC1(c2ccccc2Cl)NC(=O)N(CC(=O)N2c3ccccc3NC(=O)C2(C)C)C1=O (centres undefined)	inconclusive: 23.1 µM [cytotoxic, partial curve, poor fit]	–
Cc1ccc(S(=O)(=O)n2nc(C)c(S(=O)(=O)N3CCCCCC3)c2C)cc1C	inconclusive: 5.8 µM [rising, full curve]	–
COc1ccccc1CNC(=O)c1c(N)n(CCCN2CCOCC2)c2nc3ccccc3nc12	inconclusive: 25.9 µM [cytotoxic, partial curve, poor fit]	–
COc1ccc(C2NC(=S)NC(C)=C2C(=O)c2ccccc2)cc1OC (centres undefined)	active: 13 µM	–
O=S(=O)(c1ccccc1)c1nc(NCc2ccccc2)sc1Cl	–	inactive: -27.5%
CCCCc1nnc(NC(=O)c2cccc(S(=O)(=O)N3CCN(C)CC3)c2)s1	inconclusive: 20.6 µM [cytotoxic, single point]	–
Cc1cc(=O)[nH]c(SCC(=O)C23CC4CC(CC(C4)C2)C3)c1C#N	active: 6.51 µM	–
OC1(c2ccc(Cl)cc2)CCN(Cc2cn[nH]c2-c2ccc(F)cc2)CC1	–	inactive: -17.6%
O=C(COc1ccc(Cl)cc1)Nc1nnc(S(=O)(=O)N2CCCCCC2)s1	inconclusive: 29.1 µM [rising, single point]	–
COc1ccc(CN(C)C(C)C(=O)Nc2ccc(S(=O)(=O)N3CCCCC3)cc2)c(OC)c1 (centres undefined)	–	inactive: -14.5%
CCN(CC(=O)Nc1ccc(NC(C)=O)cc1)C(=O)c1oc2ccccc2c1C	inconclusive: 29.1 µM [cytotoxic, single point]	–
O=C1N=C2SCCN2/C1=C\c1ccc(Cl)cc1	inconclusive: 29.1 µM [cytotoxic, single point]	–
N#CC1=C(S)N(c2ccc(F)cc2)C(c2cccs2)NC1=O (centres undefined)	–	inactive: 2.77%
O=C(O)CNC(=O)c1ccc(NC(=O)/C(=C/c2cccc([N+](=O)[O-])c2)NC(=O)c2ccco2)cc1	inconclusive: 20.6 µM [rising, single point]	–
CC(=O)N/N=C(\C)c1ccc2c(c1)OCCO2	active: 23.1 µM	–
CC(C)(C)NC(=O)C(c1ccccc1)n1c(=O)c(-c2cc3ccccc3[nH]2)nc2ccccc21 (centres undefined)	active: 23.1 µM	–
COC(=O)c1cccc(NC(=O)c2cccnc2)c1	inconclusive: 29.1 µM [cytotoxic, single point]	–

Structure (SMILES)	Potency	activity change, negative = cytotoxicity
COC(=O)c1ccccc1NC(=O)CN1C(=O)COc2ccc(Cl)cc21	inconclusive: 2.31 µM [cytotoxic, partial curve, poor fit]	–
CCOc1ccc(C(=O)N/N=C/c2ccc(SC)cc2)cc1	inconclusive: 2.91 µM [cytotoxic, partial curve, poor fit]	–
CC(=O)N(C(C)=O)c1ncc2c([nH]c3ccccc32)c1C#N	active: 6.51 µM	–
Cc1ccc(/C=N/N2CCN(c3ccc(Cl)cc3)CC2)o1	inconclusive: 20.6 µM [cytotoxic, single point]	–
CCOC(=O)C1=CN(Cc2ccc(OC)cc2)C=C(C(=O)OCC)C1c1cccs1	inconclusive: 18.4 µM [cytotoxic, partial curve, poor fit]	–
Cc1cc(C)c(NC(=O)CSc2nnc(Cc3cccn3C)n2-c2ccc(F)cc2)c(C)c1	active: 23.1 µM	–
COc1cccc(C(=O)Oc2c(Sc3ccc(C)cc3)c(C)nn2C(C)(C)C)c1OC	–	inactive: -10.7%
CCOC(=O)c1sc(-c2ccc(Cl)cc2)nc1O	–	inactive: 12.4%
COc1ccccc1CC(=O)OC(C)C(=O)Nc1ccc(S(=O)(=O)N2CCCCC2)cc1 (centres undefined)	inconclusive: 29.1 µM [cytotoxic, single point]	–
Cc1cc(C(=O)CN2CCN(CC(=O)Nc3cccc(F)c3)CC2)c(C)n1C1CC1	active: 10.3 µM	–
CCOC(=O)COc1cnc2ccccc2n1	–	inactive: 3.62%
CCN(CC)c1ccc(C(=O)c2cnc(/N=C/N(C)C)s2)cc1	inconclusive: 14.6 µM [cytotoxic, partial curve]	–
COc1ccc(C2C(C(=O)Nc3cccc(OC)c3)c3ccccc3C(=O)N2C)cc1 (centres undefined)	inconclusive: 8.2 µM [cytotoxic, partial curve]	–
COC(=O)c1ccc(C(=O)N2CCCC(CNC(=O)c3ccccc3Cl)C2)cc1 (centres undefined)	–	inactive: -29.5%
CSc1ncccc1C(=O)Nc1nc2ccc(Oc3ccccc3)cc2s1	–	inactive: -5.77%
O=C(Nc1cccc(-c2nnc(-c3ccco3)o2)c1)c1ccccc1	inconclusive: 20.6 µM [cytotoxic, partial curve, poor fit]	–
Nc1c(S(=O)(=O)c2ccccc2)c2nc3ccccc3nc2n1/N=C/c1ccco1	inconclusive: 2.06 µM [cytotoxic, full curve]	–
Cc1ccc(CNC(=O)COC(=O)COc2ccc(C#N)cc2)cc1	inconclusive: 20.6 µM [rising, single point]	–
CCN(CC)c1ccc(/C=N/NC(=O)c2cccc(S(=O)(=O)N3CCOCC3)c2)c(O)c1	inconclusive: 2.91 µM [cytotoxic, full curve]	–
COc1cccc(C(=O)Nc2nnc(S(=O)(=O)N(C)Cc3ccccc3)s2)c1	–	inactive: 18.9%
CC1CCCN(c2nc3c(c(=O)n(C)c(=O)n3C)n2Cc2ccccc2)C1 (centres undefined)	inconclusive: 20.6 µM [cytotoxic, single point]	–
C[C@@H]1CN([C@H](C)CO)C(=O)CCCn2nncc2CO[C@H]1CN(C)Cc1cccc(C(=O)O)c1	–	inactive: -19%
CCn1c(O)c(C=NC2CCCC(C)C2C)sc1=S (centres undefined)	inconclusive: 10.3 µM [cytotoxic, single point]	–

Structure (SMILES)	Potency	activity change, negative = cytotoxicity
CCOc1ccc(C(=O)NCCSc2c(C)[nH]c3ccccc23)cc1OCC	–	inactive: -15.2%
O=C(c1ccco1)N(Cc1ccccc1)c1cccc([N+](=O)[O-])c1	inconclusive: 29.1 µM [cytotoxic, single point]	–
COc1cccc(CC(=O)N(CCC2=CCCCC2)c2c(N)n(Cc3ccccc3)c(=O)[nH]c2=O)c1	–	inactive: 4.3%
Cc1cccc(NC(=O)COC(=O)COc2ccc3c(c2)CCC3)c1	inconclusive: 7.31 µM [rising, partial curve, poor fit]	–
O=C(CCl)N1CCN(S(=O)(=O)Cc2ccccc2)CC1	inconclusive: 29.1 µM [cytotoxic, single point]	–
Nc1nc(Nc2ccccc2)nc(NCc2ccco2)c1[N+](=O)[O-]	active: 16.4 µM	–
Cc1cc(OCCn2ccnc2)ccc1C(C)C	inconclusive: 20.6 µM [cytotoxic, partial curve]	–
N#C/C(=C\c1cccnc1)C(=O)Nc1ccccc1[N+](=O)[O-]	–	inactive: 16.7%
O=C1COc2ccc(C(=O)CSc3nnc(Cc4cccs4)n3-c3ccccc3)cc2N1	inconclusive: 25.9 µM [cytotoxic, single point]	–
Cc1ccc2oc(=O)c3cnn(CC(=O)N4CCCCC4C)c3c2c1 (centres undefined)	inconclusive: 16.4 µM [rising, partial curve]	–
O=C(NCCN1CCOCC1)NC1(C(F)(F)F)Oc2ccc(Cl)cc2O1 (centres undefined)	inconclusive: 11.6 µM [cytotoxic, partial curve]	–
Cc1csc(NC(=O)CCCNC(=O)c2ccc(Cl)cc2)n1	inconclusive: 14.6 µM [rising, partial curve, poor fit]	–
COC(=O)c1ccncc1N	inconclusive: 29.1 µM [rising, single point]	–
CN(Cc1ccccc1)C(=O)c1ccccc1C(=O)OCC(=O)N(Cc1ccccc1)C(C)(C)C	inconclusive: 29.1 µM [cytotoxic, single point]	–
C/C(=N\Nc1nc(N2CCOCC2)nc(N2CCOCC2)n1)c1ccc([N+](=O)[O-])cc1	inconclusive: 1.46 µM [cytotoxic, full curve, poor fit]	–
Cc1ccc2nc(-c3ccc(Cl)s3)c(Nc3ccc4c(c3)OCCO4)n2c1	–	inactive: 10.3%
COC(=O)CCCCC1SCC(NC(=O)OC)C1NC(=O)OC (centres undefined)	inconclusive: 23.1 µM [rising, partial curve, poor fit]	–
COc1cccc(-n2c(SCc3ccc(F)cc3)nc3c([nH]c4ccccc43)c2=O)c1	inconclusive: 29.1 µM [cytotoxic, single point]	–
Cc1cc2ccccn2c1C(=O)c1ccncc1	inconclusive: 16.4 µM [cytotoxic, partial curve, poor fit]	–
Cc1nn2c(C)c(C(=O)NCc3ccc(OC(C)C)cc3)cnc2c1-c1ccc(F)cc1	–	inactive: 0%
Nc1nn(-c2ccccc2)c(N)c1N=Nc1ccc2c(c1)OCO2	active: 3.26 µM	–
COc1ccc(Cn2ccnc2SCC(=O)Nc2nnc(C)s2)cc1	inconclusive: 29.1 µM [rising, partial curve, poor fit]	–
CC(C)C(=O)Nc1ncc(C(F)(F)F)cc1Cl	inconclusive: 18.4 µM [rising, partial curve, poor fit]	–

14 entries from above, as comma-separated lines.
Structure (SMILES),Potency,"activity change, negative = cytotoxicity"
O=C(c1ccco1)N(Cc1ccccc1)c1cccc([N+](=O)[O-])c1,"inconclusive: 29.1 µM [cytotoxic, single point]",–
COc1cccc(CC(=O)N(CCC2=CCCCC2)c2c(N)n(Cc3ccccc3)c(=O)[nH]c2=O)c1,–,inactive: 4.3%
Cc1cccc(NC(=O)COC(=O)COc2ccc3c(c2)CCC3)c1,"inconclusive: 7.31 µM [rising, partial curve, poor fit]",–
O=C(CCl)N1CCN(S(=O)(=O)Cc2ccccc2)CC1,"inconclusive: 29.1 µM [cytotoxic, single point]",–
Nc1nc(Nc2ccccc2)nc(NCc2ccco2)c1[N+](=O)[O-],active: 16.4 µM,–
O=C1COc2ccc(C(=O)CSc3nnc(Cc4cccs4)n3-c3ccccc3)cc2N1,"inconclusive: 25.9 µM [cytotoxic, single point]",–
Cc1ccc2oc(=O)c3cnn(CC(=O)N4CCCCC4C)c3c2c1 (centres undefined),"inconclusive: 16.4 µM [rising, partial curve]",–
COC(=O)c1ccncc1N,"inconclusive: 29.1 µM [rising, single point]",–
CN(Cc1ccccc1)C(=O)c1ccccc1C(=O)OCC(=O)N(Cc1ccccc1)C(C)(C)C,"inconclusive: 29.1 µM [cytotoxic, single point]",–
COC(=O)CCCCC1SCC(NC(=O)OC)C1NC(=O)OC (centres undefined),"inconclusive: 23.1 µM [rising, partial curve, poor fit]",–
COc1cccc(-n2c(SCc3ccc(F)cc3)nc3c([nH]c4ccccc43)c2=O)c1,"inconclusive: 29.1 µM [cytotoxic, single point]",–
Cc1nn2c(C)c(C(=O)NCc3ccc(OC(C)C)cc3)cnc2c1-c1ccc(F)cc1,–,inactive: 0%
COc1ccc(Cn2ccnc2SCC(=O)Nc2nnc(C)s2)cc1,"inconclusive: 29.1 µM [rising, partial curve, poor fit]",–
CC(C)C(=O)Nc1ncc(C(F)(F)F)cc1Cl,"inconclusive: 18.4 µM [rising, partial curve, poor fit]",–
